Values from PubChem BioAssay AID743121 (NCATS, 2013).
Here is a random part of about 26,000 deposited reagents. 167 of all reagents (0.63%) count as active. 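Calls are per gene from RSA p-values that are not deposited; an individual active-marked siRNA can sensitise only weakly.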 The numbers tell different reagents against one gene apart. No sequences are given here.

- Test: 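Genes whose silencing strengthens cell killing by camptothecin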 (primary screen)
- Cells: MDA-MB-231 cells, a human breast cancer line
- Reagents: single siRNA against human genes, 20 nM siRNA (0.8 pmol per well)
- Time to read-out: 120 h (drug added 48 h after transfection, read 72 h later)
- Challenge: camptothecin 20 nM (about EC30) for 72 h; vehicle 0.1% DMSO in parallel plates
- Read-out: 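CellTiter-Glo ATP signal, scaled to control siRNA as percent viability; sensitisation given as log2 of untreated divided by camptothecin-treated viability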
- Direction: log2 vehicle/camptothecin viability: higher = stronger sensitisation to camptothecin; viability with camptothecin and viability without drug: higher = more viable cells
- Hit rule: 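Each gene scored by redundant siRNA activity (RSA) over its individual siRNA ratios; a gene is called active at p < 0.001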

| gene | reagent | log2 vehicle/camptothecin viability | viability with camptothecin (% of control) | viability without drug (% of control) | call |
| --- | --- | --- | --- | --- | --- |
| ALPI (alkaline phosphatase, intestinal) | 1 | -0.608 | 84.9 | 55.7 | inactive |
| ALPI (alkaline phosphatase, intestinal) | 2 | 0.428 | 33.5 | 45 | inactive |
| ALPI (alkaline phosphatase, intestinal) | 3 | -0.09 | 78.3 | 73.5 | inactive |
| ALPI (alkaline phosphatase, intestinal) | 4 | 1.21 | 11.1 | 25.7 | inactive |
| ANXA2R (annexin A2 receptor) | 1 | -0.0568 | 81.9 | 78.8 | inactive |
| ANXA2R (annexin A2 receptor) | 2 | 0.162 | 9.64 | 10.8 | inactive |
| IFNL2 (interferon lambda 2) | 1 | -0.0832 | 46.4 | 43.8 | inactive |
| IFNL2 (interferon lambda 2) | 2 | -0.304 | 66.1 | 53.6 | inactive |
| IFNL2 (interferon lambda 2) | 3 | 0.164 | 55.6 | 62.3 | inactive |
| IFNL2 (interferon lambda 2) | 4 | -0.475 | 6.41 | 4.61 | inactive |
| IFNL2 (interferon lambda 2) | 5 | -0.127 | 116 | 106 | inactive |
| IFNL2 (interferon lambda 2) | 6 | -0.309 | 88.4 | 71.3 | inactive |
| NLGN3 (neuroligin 3) | 1 | -0.0619 | 68.2 | 65.3 | inactive |
| NLGN3 (neuroligin 3) | 2 | 0.766 | 27.9 | 47.4 | inactive |
| NLGN3 (neuroligin 3) | 3 | -0.104 | 48.7 | 45.3 | inactive |
| CENPK (centromere protein K) | 1 | -0.204 | 111 | 96.1 | inactive |
| CENPK (centromere protein K) | 2 | -0.0384 | 43.3 | 42.2 | inactive |
| CENPK (centromere protein K) | 3 | -0.252 | 32.8 | 27.6 | inactive |
| CENPK (centromere protein K) | 4 | -0.119 | 78.1 | 71.9 | inactive |
| KRAS (KRas proto-oncogene, GTPase) | 1 | -0.574 | 46 | 30.9 | inactive |
| KRAS (KRas proto-oncogene, GTPase) | 2 | -0.0152 | 85.7 | 84.8 | inactive |
| KRAS (KRas proto-oncogene, GTPase) | 3 | -0.647 | 93.4 | 59.6 | inactive |
| ALPG (alkaline phosphatase, germ cell) | 1 | 0.325 | 11.3 | 14.2 | inactive |
| ALPG (alkaline phosphatase, germ cell) | 2 | -0.0249 | 81.7 | 80.3 | inactive |
| ALPG (alkaline phosphatase, germ cell) | 3 | 0.363 | 37.1 | 47.7 | inactive |
| CYP3A43 (cytochrome P450 family 3 subfamily A member 43) | 1 | -0.282 | 84.2 | 69.3 | inactive |
| CYP3A43 (cytochrome P450 family 3 subfamily A member 43) | 2 | -0.381 | 89.4 | 68.6 | inactive |
| CYP3A43 (cytochrome P450 family 3 subfamily A member 43) | 3 | -0.225 | 105 | 89.4 | inactive |
| CYP3A43 (cytochrome P450 family 3 subfamily A member 43) | 4 | -0.289 | 77.5 | 63.5 | inactive |
| PRICKLE1 (prickle planar cell polarity protein 1) | 1 | -0.139 | 81.4 | 73.9 | inactive |
| PRICKLE1 (prickle planar cell polarity protein 1) | 2 | 0.00401 | 93.9 | 94.2 | inactive |
| PRICKLE1 (prickle planar cell polarity protein 1) | 3 | 0.117 | 66.1 | 71.7 | inactive |
| PRICKLE1 (prickle planar cell polarity protein 1) | 4 | -0.346 | 27 | 21.2 | inactive |

Copied from the listing (10 entries):
| gene | reagent | log2 vehicle/camptothecin viability | viability with camptothecin (% of control) | viability without drug (% of control) | call |
| --- | --- | --- | --- | --- | --- |
| ANXA2R (annexin A2 receptor) | 1 | -0.0568 | 81.9 | 78.8 | inactive |
| ANXA2R (annexin A2 receptor) | 2 | 0.162 | 9.64 | 10.8 | inactive |
| IFNL2 (interferon lambda 2) | 1 | -0.0832 | 46.4 | 43.8 | inactive |
| IFNL2 (interferon lambda 2) | 2 | -0.304 | 66.1 | 53.6 | inactive |
| IFNL2 (interferon lambda 2) | 3 | 0.164 | 55.6 | 62.3 | inactive |
| IFNL2 (interferon lambda 2) | 4 | -0.475 | 6.41 | 4.61 | inactive |
| IFNL2 (interferon lambda 2) | 5 | -0.127 | 116 | 106 | inactive |
| IFNL2 (interferon lambda 2) | 6 | -0.309 | 88.4 | 71.3 | inactive |
| NLGN3 (neuroligin 3) | 1 | -0.0619 | 68.2 | 65.3 | inactive |
| NLGN3 (neuroligin 3) | 2 | 0.766 | 27.9 | 47.4 | inactive |

Further results follow.
| gene | reagent | log2 vehicle/camptothecin viability | viability with camptothecin (% of control) | viability without drug (% of control) | call |
| --- | --- | --- | --- | --- | --- |
| CIDEC (cell death inducing DFFA like effector c) | 1 | -0.333 | 47.1 | 37.4 | inactive |
| CIDEC (cell death inducing DFFA like effector c) | 2 | -0.147 | 92.6 | 83.6 | inactive |
| CIDEC (cell death inducing DFFA like effector c) | 3 | -0.277 | 104 | 85.9 | inactive |
| CIDEC (cell death inducing DFFA like effector c) | 4 | 1.22 | 15.8 | 36.8 | inactive |
| FBXW12 (F-box and WD repeat domain containing 12) | 1 | -0.116 | 102 | 93.7 | inactive |
| FBXW12 (F-box and WD repeat domain containing 12) | 2 | 0.444 | 44.5 | 60.6 | inactive |
| FBXW12 (F-box and WD repeat domain containing 12) | 3 | -0.201 | 45.4 | 39.5 | inactive |
| FBXW12 (F-box and WD repeat domain containing 12) | 4 | -0.375 | 76 | 58.6 | inactive |
| CDKN3 (cyclin dependent kinase inhibitor 3) | 1 | -0.241 | 127 | 108 | inactive |
| CDKN3 (cyclin dependent kinase inhibitor 3) | 2 | 0.663 | 42.3 | 67 | inactive |
| CDKN3 (cyclin dependent kinase inhibitor 3) | 3 | -0.236 | 73.4 | 62.4 | inactive |
| CDKN3 (cyclin dependent kinase inhibitor 3) | 4 | 0.0423 | 69.3 | 71.4 | inactive |
| TMPRSS7 (transmembrane serine protease 7) | 1 | -1.04 | 38.6 | 18.8 | inactive |
| TMPRSS7 (transmembrane serine protease 7) | 2 | -0.0355 | 82.8 | 80.8 | inactive |
| TMPRSS7 (transmembrane serine protease 7) | 3 | -0.0698 | 111 | 106 | inactive |
| TMPRSS7 (transmembrane serine protease 7) | 4 | -0.305 | 93.6 | 75.7 | inactive |
| SLC9D1 | 1 | -0.188 | 99.1 | 87 | inactive |
| SLC9D1 | 2 | -0.465 | 40.5 | 29.3 | inactive |
| SLC9D1 | 3 | -0.243 | 64.4 | 54.4 | inactive |
| SRPK2 (SRSF protein kinase 2) | 1 | -0.383 | 75.2 | 57.7 | inactive |
| SRPK2 (SRSF protein kinase 2) | 2 | -0.149 | 89.7 | 80.9 | inactive |
| SRPK2 (SRSF protein kinase 2) | 3 | 0.073 | 79.7 | 83.8 | inactive |
| SRPK2 (SRSF protein kinase 2) | 4 | 0.103 | 55.8 | 59.9 | inactive |
| ASMT (acetylserotonin O-methyltransferase) | 1 | 0.091 | 85.2 | 90.8 | inactive |
| ASMT (acetylserotonin O-methyltransferase) | 2 | -0.316 | 84.6 | 68 | inactive |
| ASMT (acetylserotonin O-methyltransferase) | 3 | -0.277 | 94 | 77.6 | inactive |
| ASMT (acetylserotonin O-methyltransferase) | 4 | 0.302 | 61.9 | 76.3 | inactive |
| NR2C1 (nuclear receptor subfamily 2 group C member 1) | 1 | -0.0464 | 81.1 | 78.6 | inactive |
| NR2C1 (nuclear receptor subfamily 2 group C member 1) | 2 | -0.934 | 67.7 | 35.4 | inactive |
| NR2C1 (nuclear receptor subfamily 2 group C member 1) | 3 | -0.239 | 67.7 | 57.4 | inactive |
| NR2C1 (nuclear receptor subfamily 2 group C member 1) | 4 | -0.323 | 125 | 99.8 | inactive |
| TBC1D23 (TBC1 domain family member 23) | 1 | -0.247 | 44.5 | 37.5 | inactive |
| TBC1D23 (TBC1 domain family member 23) | 2 | -0.00799 | 71 | 70.6 | inactive |
| TBC1D23 (TBC1 domain family member 23) | 3 | 0.0778 | 84.5 | 89.2 | inactive |
| TBC1D23 (TBC1 domain family member 23) | 4 | 0.0386 | 53.4 | 54.8 | inactive |
